According to patent publication US20070292403A1, “Methods of treating a neurological disorder with creatine monohydrate” (priority 2006, published 2007):
At least one structure is not confirmed: it was looked up by name or label, or the drawing left a doubt.

Test system: subjects with early Parkinson's disease (PD)
Assay: Example 2: randomized double-blind futility trial, change in total UPDRS
Assay type: in vivo, human
Conditions: threshold 7.46 (30% less than 10.65 DATATOP historical progression)
Protocol: Study Design and Randomization. This example was a single arm futility study designed to assess creatine and minocycline. A placebo arm for calibration was included in the example. Eligible subjects were randomly assigned in a 1:1:1 fashion to receive 1) 10 g/day of creatine monohydrate and placebo minocycline, 2) placebo creatine monohydrate and 200 mg/day of minocycline, or 3) placebo creatine monohydrate and placebo minocycline. The primary futility analysis was at 12 months of follow-up, but each subject was followed for 18 months for additional safety information. Subjects and investigators were kept blinded to treatment group.
Participants. […] Two of the three cardinal manifestations of PD (tremor, rigidity, and bradykinesia) were required; these findings had to be asymmetric. The diagnosis of PD must have been made within 5 years of randomization. Women of childbearing potential were required to use adequate birth control and have a negative pregnancy test at baseline. […]
Outcome measures. […] Disability was assessed by the sight investigator, based on impairment in ambulation, activities in daily living, and occupational status. […] Both the site investigator and medical monitors assessed the potential relationship between SAEs and study drug. […]

CN(C)c1ccc(O)c2c1C[C@H]1C[C@H]3[C@H](N(C)C)C(O)=C(C(N)=O)C(=O)[C@@]3(O)C(O)=C1C2=O [Minocycline, minocycline]
Futility analysis outcome: could not be rejected as futile
